{"source": "the supplement of paper PMC8728848", "binders": {"B1": {"name": "CBP21 (Serratia marcescens), O83009 (protein)", "chain": "MNKTSRTLLSLGLLSAAMFGVSQQANAHGYVESPASRAYQCKLQLNTQCGSVQYEPQSVEGLKGFPQAGPADGHIASADKSTFFELDQQTPTRWNKLNLKTGPNSFTWKLTARHSTTSWRYFITKPNWDASQPLTRASFDLTPFCQFNDGGAIPAAQVTHQCNIPADRSGSHVILAVWDIADTANAFYQAIDVNLSK"}}, "experiment_in_all_cases": "glycan array binding signal (z-score within array); higher = stronger binding", "settings_in_all_cases": "glycan notation: IUPAC condensed, linker removed", "key": {"GalNAc(b1-4)GlcNAc": {"target": "GalNAc(b1-4)GlcNAc", "outline": "(§1)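 Glycan array data came from 3228 arrays in the Consortium for Functional Glycomics database, and only arrays with an available protein sequence were kept. Glycan names were put into IUPAC-condensed notation, and columns mapping to the same glycan were averaged. The binding signal is a within-array Z-score, averaged across arrays of one protein sequence run at different concentrations or buffers and across linkers. A negative Z-score can be read as non-binding.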"}, "[1]": {"target": "GalNAc(b1-4)GlcNAc(b1-2)Man", "outline": "as §1"}, "[2]": {"target": "GalNAc(b1-4)GlcNAc(b1-2)Man(a1-3)[GalNAc(b1-4)GlcNAc(b1-2)Man(a1-6)]Man(b1-4)GlcNAc(b1-4)GlcNAc", "outline": "as §1"}, "[3]": {"target": "GalNAc(b1-4)GlcNAc(b1-3)GalNAc(b1-4)GlcNAc", "outline": "as §1"}, "GalNAc(b1-4)GlcNAc6S": {"target": "GalNAc(b1-4)GlcNAc6S", "outline": "as §1"}, "GalNAc(b1-6)GalNAc": {"target": "GalNAc(b1-6)GalNAc", "outline": "as §1"}, "GalNAc3S(b1-4)GlcNAc": {"target": "GalNAc3S(b1-4)GlcNAc", "outline": "as §1"}, "GalNAc3S(b1-4)GlcNAc3S": {"target": "GalNAc3S(b1-4)GlcNAc3S", "outline": "as §1"}, "[4]": {"target": "GalNAc3S(b1-4)[Fuc(a1-3)]GlcNAc", "outline": "as §1"}, "GalNAc4S6S(b1-4)GlcNAc": {"target": "GalNAc4S6S(b1-4)GlcNAc", "outline": "as §1"}, "GalNAc6S(b1-4)GlcNAc": {"target": "GalNAc6S(b1-4)GlcNAc", "outline": "as §1"}, "Glc(a1-4)Glc": {"target": "Glc(a1-4)Glc", "outline": "as §1"}, "[5]": {"target": "Glc(a1-4)Glc(a1-4)Glc(a1-4)Glc", "outline": "as §1"}, "Glc(a1-6)Glc(a1-6)Glc": {"target": "Glc(a1-6)Glc(a1-6)Glc", "outline": "as §1"}, "[6]": {"target": "Glc(a1-6)Glc(a1-6)Glc(a1-6)Glc", "outline": "as §1"}, "Glc(b1-4)Glc": {"target": "Glc(b1-4)Glc", "outline": "as §1"}, "Glc(b1-6)Glc": {"target": "Glc(b1-6)Glc", "outline": "as §1"}, "GlcA(b1-3)Gal": {"target": "GlcA(b1-3)Gal", "outline": "as §1"}, "GlcA(b1-3)GlcNAc": {"target": "GlcA(b1-3)GlcNAc", "outline": "as §1"}, "GlcA(b1-6)Gal": {"target": "GlcA(b1-6)Gal", "outline": "as §1"}, "[7]": {"target": "GlcA3S(b1-3)Gal(b1-4)GlcNAc(b1-2)Man", "outline": "as §1"}, "[8]": {"target": "GlcA3S(b1-3)Gal(b1-4)GlcNAc(b1-3)Gal(b1-4)Glc", "outline": "as §1"}, "[9]": {"target": "GlcNAc(a1-3)Gal(b1-4)GlcNAc", "outline": "as §1"}, "[10]": {"target": "GlcNAc(a1-4)Gal(b1-3)GlcNAc", "outline": "as §1"}, "[11]": {"target": "GlcNAc(a1-4)Gal(b1-4)GalNAc", "outline": "as §1"}, "[12]": {"target": "GlcNAc(a1-4)Gal(b1-4)GlcNAc", "outline": "as §1"}, "[13]": {"target": "GlcNAc(a1-4)Gal(b1-4)GlcNAc(b1-3)Gal(b1-4)Glc", "outline": "as §1"}, "[14]": {"target": "GlcNAc(a1-4)Gal(b1-4)GlcNAc(b1-3)Gal(b1-4)GlcNAc", "outline": "as §1"}, "[15]": {"target": "GlcNAc(a1-4)Gal(b1-4)GlcNAc(b1-3)Gal(b1-4)GlcNAc(b1-3)Gal(b1-4)GlcNAc", "outline": "as §1"}, "[16]": {"target": "GlcNAc(a1-4)Gal(b1-4)GlcNAc(b1-3)Gal(b1-4)[Fuc(a1-3)]GlcNAc(b1-3)Gal(b1-4)[Fuc(a1-3)]GlcNAc", "outline": "as §1"}, "[17]": {"target": "GlcNAc(a1-6)Gal(b1-4)GlcNAc", "outline": "as §1"}, "[18]": {"target": "GlcNAc(b1-2)Gal(b1-3)GalNAc", "outline": "as §1"}, "[19]": {"target": "GlcNAc(b1-2)Man(a1-3)[GlcNAc(b1-2)Man(a1-6)]Man(b1-4)GlcNAc(b1-4)GlcNAc", "outline": "as §1"}, "[20]": {"target": "GlcNAc(b1-2)Man(a1-3)[GlcNAc(b1-2)Man(a1-6)]Man(b1-4)GlcNAc(b1-4)[Fuc(a1-6)]GlcNAc", "outline": "as §1"}, "[21]": {"target": "GlcNAc(b1-2)Man(a1-3)[GlcNAc(b1-4)][GlcNAc(b1-2)Man(a1-6)]Man(b1-4)GlcNAc(b1-4)GlcNAc", "outline": "as §1"}, "[22]": {"target": "GlcNAc(b1-2)Man(a1-3)[GlcNAc(b1-4)][GlcNAc(b1-2)Man(a1-6)]Man(b1-4)GlcNAc(b1-4)[Fuc(a1-6)]GlcNAc", "outline": "as §1"}, "[23]": {"target": "GlcNAc(b1-2)[GlcNAc(b1-4)]Man(a1-3)[GlcNAc(b1-2)Man(a1-6)]Man(b1-4)GlcNAc(b1-4)GlcNAc", "outline": "as §1"}, "[24]": {"target": "GlcNAc(b1-2)[GlcNAc(b1-4)]Man(a1-3)[GlcNAc(b1-4)][GlcNAc(b1-2)Man(a1-6)]Man(b1-4)GlcNAc(b1-4)GlcNAc", "outline": "as §1"}, "[25]": {"target": "GlcNAc(b1-2)[GlcNAc(b1-4)]Man(a1-3)[GlcNAc(b1-4)][GlcNAc(b1-2)[GlcNAc(b1-6)]Man(a1-6)]Man(b1-4)GlcNAc(b1-4)GlcNAc", "outline": "as §1"}, "[26]": {"target": "GlcNAc(b1-2)[GlcNAc(b1-4)]Man(a1-3)[GlcNAc(b1-4)][GlcNAc(b1-2)[GlcNAc(b1-6)]Man(a1-6)]Man(b1-4)GlcNAc(b1-4)[Fuc(a1-6)]GlcNAc", "outline": "as §1"}, "[27]": {"target": "GlcNAc(b1-2)[GlcNAc(b1-6)]Man(a1-6)[GlcNAc(b1-2)Man(a1-3)]Man(b1-4)GlcNAc(b1-4)GlcNAc", "outline": "as §1"}, "[28]": {"target": "GlcNAc(b1-2)[GlcNAc(b1-6)]Man(a1-6)[GlcNAc(b1-2)Man(a1-3)]Man(b1-4)GlcNAc(b1-4)[Fuc(a1-6)]GlcNAc", "outline": "as §1"}, "[29]": {"target": "GlcNAc(b1-2)[GlcNAc(b1-6)]Man(a1-6)[GlcNAc(b1-4)][GlcNAc(b1-2)Man(a1-3)]Man(b1-4)GlcNAc(b1-4)GlcNAc", "outline": "as §1"}, "GlcNAc(b1-3)Fuc": {"target": "GlcNAc(b1-3)Fuc", "outline": "as §1"}, "GlcNAc(b1-3)Gal": {"target": "GlcNAc(b1-3)Gal", "outline": "as §1"}}, "note": "Some of the results follow."}
{"binder": "B1", "values": [{"measurement": "glycan array binding signal (z-score)", "setting": "GalNAc(b1-4)GlcNAc", "result": 0.482}, {"measurement": "glycan array binding signal (z-score)", "setting": "[1]", "result": 0.23}, {"measurement": "glycan array binding signal (z-score)", "setting": "[2]", "result": -0.07}, {"measurement": "glycan array binding signal (z-score)", "setting": "[3]", "result": 0.054}, {"measurement": "glycan array binding signal (z-score)", "setting": "GalNAc(b1-4)GlcNAc6S", "result": 0.16}, {"measurement": "glycan array binding signal (z-score)", "setting": "GalNAc(b1-6)GalNAc", "result": -1.14}, {"measurement": "glycan array binding signal (z-score)", "setting": "GalNAc3S(b1-4)GlcNAc", "result": -0.701}, {"measurement": "glycan array binding signal (z-score)", "setting": "GalNAc3S(b1-4)GlcNAc3S", "result": 0.435}, {"measurement": "glycan array binding signal (z-score)", "setting": "[4]", "result": 0.277}, {"measurement": "glycan array binding signal (z-score)", "setting": "GalNAc4S6S(b1-4)GlcNAc", "result": 0.327}, {"measurement": "glycan array binding signal (z-score)", "setting": "GalNAc6S(b1-4)GlcNAc", "result": -0.003}, {"measurement": "glycan array binding signal (z-score)", "setting": "Glc(a1-4)Glc", "result": -0.381}, {"measurement": "glycan array binding signal (z-score)", "setting": "[5]", "result": 0.888}, {"measurement": "glycan array binding signal (z-score)", "setting": "Glc(a1-6)Glc(a1-6)Glc", "result": -0.542}, {"measurement": "glycan array binding signal (z-score)", "setting": "[6]", "result": -0.721}, {"measurement": "glycan array binding signal (z-score)", "setting": "Glc(b1-4)Glc", "result": -0.839}, {"measurement": "glycan array binding signal (z-score)", "setting": "Glc(b1-6)Glc", "result": -1.2}, {"measurement": "glycan array binding signal (z-score)", "setting": "GlcA(b1-3)Gal", "result": -1.25}, {"measurement": "glycan array binding signal (z-score)", "setting": "GlcA(b1-3)GlcNAc", "result": 1.4}, {"measurement": "glycan array binding signal (z-score)", "setting": "GlcA(b1-6)Gal", "result": 0.57}, {"measurement": "glycan array binding signal (z-score)", "setting": "[7]", "result": -1.64}, {"measurement": "glycan array binding signal (z-score)", "setting": "[8]", "result": 2.43}, {"measurement": "glycan array binding signal (z-score)", "setting": "[9]", "result": -0.772}, {"measurement": "glycan array binding signal (z-score)", "setting": "[10]", "result": 0.503}, {"measurement": "glycan array binding signal (z-score)", "setting": "[11]", "result": -0.126}, {"measurement": "glycan array binding signal (z-score)", "setting": "[12]", "result": -2.04}, {"measurement": "glycan array binding signal (z-score)", "setting": "[13]", "result": 0.067}, {"measurement": "glycan array binding signal (z-score)", "setting": "[14]", "result": -0.305}, {"measurement": "glycan array binding signal (z-score)", "setting": "[15]", "result": -1.52}, {"measurement": "glycan array binding signal (z-score)", "setting": "[16]", "result": -1.08}, {"measurement": "glycan array binding signal (z-score)", "setting": "[17]", "result": -0.193}, {"measurement": "glycan array binding signal (z-score)", "setting": "[18]", "result": -1.05}, {"measurement": "glycan array binding signal (z-score)", "setting": "[19]", "result": -0.889}, {"measurement": "glycan array binding signal (z-score)", "setting": "[20]", "result": 2.05}, {"measurement": "glycan array binding signal (z-score)", "setting": "[21]", "result": -0.341}, {"measurement": "glycan array binding signal (z-score)", "setting": "[22]", "result": -0.613}, {"measurement": "glycan array binding signal (z-score)", "setting": "[23]", "result": -0.435}, {"measurement": "glycan array binding signal (z-score)", "setting": "[24]", "result": 1.71}, {"measurement": "glycan array binding signal (z-score)", "setting": "[25]", "result": -0.854}, {"measurement": "glycan array binding signal (z-score)", "setting": "[26]", "result": -0.659}, {"measurement": "glycan array binding signal (z-score)", "setting": "[27]", "result": -1.68}, {"measurement": "glycan array binding signal (z-score)", "setting": "[28]", "result": 1.12}, {"measurement": "glycan array binding signal (z-score)", "setting": "[29]", "result": -0.381}, {"measurement": "glycan array binding signal (z-score)", "setting": "GlcNAc(b1-3)Fuc", "result": -0.382}, {"measurement": "glycan array binding signal (z-score)", "setting": "GlcNAc(b1-3)Gal", "result": -0.728}]}
